One assay deals with Dm48K (Drosophila) (UniProt Q9VWH9). The assay is described as follows: co-IP; two separately expressed FLAG- and V5-tagged proteins in S2 cells; FLAG magnetic beads or V5 agarose beads; IP buffer 20 mM Tris-HCl pH 8.0, 150 mM NaCl, 0.5% NP40, 1% Triton X-100; also with RNase A and/or DNase I on the washed beads; western blot. (Immunoblotting shows a protein as a band on a membrane.)

Sequences of proteins named here, by UniProt entry; tags and fusion partners are left off. A change or cut given only in a name is not applied to a line headed by its entry.
UniProt Q9VWH9: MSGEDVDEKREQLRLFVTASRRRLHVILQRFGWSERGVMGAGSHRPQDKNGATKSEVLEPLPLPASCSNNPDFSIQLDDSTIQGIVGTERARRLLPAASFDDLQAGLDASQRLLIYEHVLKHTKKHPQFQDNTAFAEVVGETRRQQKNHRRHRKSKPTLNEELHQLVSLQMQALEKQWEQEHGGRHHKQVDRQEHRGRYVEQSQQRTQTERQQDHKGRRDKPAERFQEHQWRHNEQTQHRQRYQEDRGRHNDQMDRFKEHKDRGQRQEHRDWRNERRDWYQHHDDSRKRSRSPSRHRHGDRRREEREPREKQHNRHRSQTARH
UniProt Q7K1U9: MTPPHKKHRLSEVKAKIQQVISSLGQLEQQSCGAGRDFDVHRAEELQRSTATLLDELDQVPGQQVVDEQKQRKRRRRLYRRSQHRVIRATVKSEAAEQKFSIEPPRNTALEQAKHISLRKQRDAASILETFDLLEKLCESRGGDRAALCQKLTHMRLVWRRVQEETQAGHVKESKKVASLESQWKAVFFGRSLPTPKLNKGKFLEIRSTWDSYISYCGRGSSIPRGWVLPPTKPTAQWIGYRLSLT
UniProt A8DZ10: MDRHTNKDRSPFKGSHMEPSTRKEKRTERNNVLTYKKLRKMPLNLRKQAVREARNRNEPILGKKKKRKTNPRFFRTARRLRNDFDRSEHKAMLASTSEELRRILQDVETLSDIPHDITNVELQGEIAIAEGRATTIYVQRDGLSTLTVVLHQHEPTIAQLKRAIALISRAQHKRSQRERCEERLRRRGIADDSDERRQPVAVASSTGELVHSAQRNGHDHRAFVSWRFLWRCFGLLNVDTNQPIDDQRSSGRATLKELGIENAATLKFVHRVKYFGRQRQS

The target of the next assay is Dm59K (Drosophila) (UniProt Q7K1U9). The description is as above.

These are yes or no findings as the source states them, for the method shown. Binding seen in cells or lysates may run through a third protein. For part of these data: A result given as binding can be weak or reduced; the word gives no strength.

For the substance Dm25K (from UniProt A8DZ10), the binding result with Dm48K (Drosophila) is given as “no binding”; with Dm59K (Drosophila), “binds weakly”.

On to Dm48K (from UniProt Q9VWH9), for which, in the assay with Dm59K (Drosophila), the binding result is recorded as “binds”.

Source of the values: article PMC11304329.
